Results are given in words; binding and its absence hold for the method and conditions named. Some results given as binding are weak or reduced against the parent protein; the word gives no strength.

Protein sequences, listed by entry. Tags and fused reporters are not part of them. Residues count along the entry.
UniProt P13747, residues 22-295: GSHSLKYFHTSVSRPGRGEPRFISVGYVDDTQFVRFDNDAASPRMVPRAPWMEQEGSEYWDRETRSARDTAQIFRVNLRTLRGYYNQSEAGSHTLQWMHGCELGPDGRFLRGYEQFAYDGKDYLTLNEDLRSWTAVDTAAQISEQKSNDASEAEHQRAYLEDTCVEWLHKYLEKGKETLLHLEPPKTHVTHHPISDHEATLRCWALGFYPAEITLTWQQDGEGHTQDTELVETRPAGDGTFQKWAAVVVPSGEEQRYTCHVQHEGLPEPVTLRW

In this assay the target is denatured recombinant HLA-E (HLA-E single protein, heavy chain alone, expressed in BL21 E. coli) (human) (UniProt P13747). Put plainly: ELISA: anti-HLA-E capture, HRP-avidin detection of biotinylated peptide; HLA-E heavy chain alone as the reference. (An ELISA detects its analyte on a solid surface through an enzyme-linked reagent.)

With NPRKVTAYL (biotinylated (position not given)) [biotinylated HLA-A2 leader peptide (SEQ ID NO: 50, …)], the binding entry was “binds”.

The values are drawn from patent US11464840B2, “Universal non-classical MHC I vaccines: HLA-E-restricted antigenic peptides as universal vaccines to treat allergy, inflammation, autoimmune and infectious diseases, and cancers” (priority 2019, dated 2022).
